These results are taken from article PMC4974071.

What all share (experiment): FRET or BRET; BRET in live HEK293 cells co-transfected with 6 fmol Renilla luciferase fusion (donor) and 6 fmol YFP fusion (acceptor) plasmid, 48 hr, then Enduren 60 uM for 4 hr; mean corrected BRET ratios; nuclear-targeted luciferase or YFP as controls
(In general: Bioluminescence resonance energy transfer reports proximity on the nanometre scale.)

Assay [1] concerns the target BCL11A-L (long isoform of BCL11A), wild-type (human) (UniProt Q9H165).
The target of assay [2] is T1, BCL11A-S (short isoform of BCL11A), wild-type (human) (UniProt Q9H165).
T1 sequence: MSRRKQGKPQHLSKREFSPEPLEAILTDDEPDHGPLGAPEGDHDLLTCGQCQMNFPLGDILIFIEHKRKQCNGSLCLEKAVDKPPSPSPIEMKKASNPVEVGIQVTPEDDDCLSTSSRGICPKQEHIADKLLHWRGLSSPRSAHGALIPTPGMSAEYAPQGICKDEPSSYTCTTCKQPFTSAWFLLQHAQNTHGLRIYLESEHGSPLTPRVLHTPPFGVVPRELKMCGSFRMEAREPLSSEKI

The target in a further assay is T2, NONO (human) (UniProt Q15233).
T2 sequence: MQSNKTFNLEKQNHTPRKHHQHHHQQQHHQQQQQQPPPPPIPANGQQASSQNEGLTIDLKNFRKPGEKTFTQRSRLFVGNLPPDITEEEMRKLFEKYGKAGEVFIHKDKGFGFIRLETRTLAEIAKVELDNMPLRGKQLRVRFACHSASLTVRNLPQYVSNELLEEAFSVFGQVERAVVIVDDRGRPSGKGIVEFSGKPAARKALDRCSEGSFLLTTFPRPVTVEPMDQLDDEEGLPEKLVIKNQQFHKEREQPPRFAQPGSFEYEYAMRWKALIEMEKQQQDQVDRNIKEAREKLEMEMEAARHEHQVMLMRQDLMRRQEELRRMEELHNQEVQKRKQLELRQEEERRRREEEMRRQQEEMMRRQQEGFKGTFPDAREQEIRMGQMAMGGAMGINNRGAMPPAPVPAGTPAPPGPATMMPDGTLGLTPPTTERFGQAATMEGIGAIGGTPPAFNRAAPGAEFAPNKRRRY

No constants are given. Whether binding was seen depends on the method and setting. Binding seen in cells or lysates may run through a third protein. Some binding calls cover weakened binding; strength is not graded here.

Turning to “BCL11A-L (long isoform of BCL11A), wild-type (from UniProt Q9H165-2 1-773)”, the binding result (in assay [1]; in assay [2]; with NONO (human)) was “binds” each time. In the case of “BCL11A-L p.Cys48Phe (from UniProt Q9H165-2 1-773)”, the binding result in the assay with NONO (human) was “binds”.

With “BCL11A-L p.His66Gln (from UniProt Q9H165-2 1-773)”, the binding result in the assay with NONO (human) is given as “binds”. On the same count and under the same terms, as for “BCL11A-L p.Thr47Pro (from UniProt Q9H165-2 1-773)”, the entry is “binds”.
